Experimental data reported in patent US11980658B2, “Immunotherapeutic molecules and uses thereof” (priority 2012, dated 2024).
Not every detail of the peptide structures is certain; ends, links or a residue may be inferred. Some results were stated once for a whole list of compounds, not compound by compound. Where no end group is shown, it is not given here.

Test system: Ara h 1-specific CD4+ T-cell lines (TCL)
Assay: Antigen-induced TCL proliferation, 3H-thymidine uptake assay
Format: cell-based, human
Conditions: for Donor responder frequency for TCL recognition of Ara h 1 20-mer peptides: n=18 peanut-allergic subjects, SI≥2.5
Excerpt: Ara h 1-specific oligoclonal TCL were generated from peripheral blood mononuclear cells (PBMC) of peanut-allergic subjects using 5,6-carboxyfluorescein diacetate succinimidylester (CFSE)-based methodology (Mannering et al. J Immunol Methods. 2005; 298(1-2):83-92) as described (Prickett et al. 2011 supra), with CPE ([…]), Ara h 1 (10 gg/mL) or 20-mer peptides spanning the Ara h 1 sequence (11 amino acid (aa) overlap (17 aa overlap for the last peptide); Table 5; 10 pg/mL/peptide) as the driving antigens. All TCL were tested for specificity (proliferation) to individual Ara h 1 20-mers (10 pg/mL) as well as CPE ([…]) and/or Ara h 1 (10 pg/mL) Core epitope sequences were mapped within selected 20-mers using peptide sets truncated from the N- or C-terminus of the 20-mer as described (Prickett et al. 2011 supra).
All culturing was performed in RPMI-1640 containing 2 mM L-glutamine, 100 IU/mL penicillin-streptomycin and 5% heat-inactivated human AB serum (Sigma-Aldrich, St Louis, USA) (cRPMI). Antigen-induced TCL proliferation was assessed by ^3H-thymidine (3H-TdR) uptake assays as described (Prickett et al. 2011 supra). A stimulation index (SI; cpm antigen-stimulated T cells/cpm unstimulated T cells) >2.5 was considered positive and all positive responses confirmed in >2 assays. HLA-restriction of epitope recognition by TCL was assessed using monoclonal antibodies (mAb) against HLA-DR (L243), HLA-DQ (SVP-L3) or HLA-DP (B7/21) to block epitope presentation as described (Prickett et al. 2011 supra). To allow detection of peptide-induced CD4+ T-cell proliferation within whole PBMC, 7-day cultures of CFSE-labelled PBMC were set up as described for TCL generation (Prickett et al. 2011 supra). At least 10,000 CD4^+ T cells were analyzed per sample and SI calculated as percentage of CD4^+CFSE^lo (proliferated) cells with antigen/percentage of CD4^+CFSE^lo cells without antigen (background). The detection threshold for a specific response in this assay was assessed by expanding peptide-specific TCL from proliferated CD4^+ cells over a range of SI values for three subjects. Specific TCL could be generated from divided T cells with SI as low as 1.1 in all three subjects (data not shown) allowing designation of an SI>1.1 as positive.

Row | Sequence | Donor responder frequency for TCL recognition of Ara h 1 20-mer peptides | TCL stimulation / recognition (in words)
1 | FDQRSRQFQNLQNHRIVQIE [compound 23] | ≥ 22% | 
2 | KEGDVFIMPAAHPVAINASS [compound 57] | ≥ 22% | 
3 | LPKHADADNILVIQQGQATV [compound 26] | ≥ 22% | 
4 | NLQNHRIVQIEAKPNTLVLP [compound 24] | ≥ 22% | 
5 | NNFGKLFEVKPDKKNPQLQ [(409-427), NNFGKLFEVKPDKKNPQLQ] |  | efficiently stimulated TCL specific for either epitope
6 | RVLLEENAGGEQEERGQRRW [compound 38] | ≥ 22% | 
7 | RWSTRSSENNEGVIVKVSKE [peptide 40] | ≥ 22% | 
